Results reported in patent US5496854A, “Metallocenes as anti-tumor drugs” (Technion Research & Development Foundation Ltd., priority 1992, dated 1996).
For at least one compound, name, drawing or mass did not settle the structure.

Assays:
[1] = system: SIHA Cerv. Carc.; assay: Cytotoxicity, SIHA; type: cell-based; conditions: log of concentration
[2] = system: MCF-7 Adri (Adr); assay: Cytotoxicity, MCF-7 Adri (Adr); type: cell-based; conditions: log of concentration

Row | SMILES | cytotoxicity (log.) [1] | cytotoxicity (log.) [2]
1 | COCCOC(=O)c1ccc([O-])cc1.COCCOC(=O)c1ccc([O-])cc1.[Ti+4].c1cc[cH-]c1.c1cc[cH-]c1 [TMEM, Bis[4-(2-methoxy)ethoxycarbonylphenolato]bis(n^5-cyclopentadienyl)titanium(IV)] | -4.60 log. (M) | -5.51 log. (M)
2 | C[N+](C)(C)CCOC(=O)c1ccc([O-])cc1.C[N+](C)(C)CCOC(=O)c1ccc([O-])cc1.[Ti+4].c1cc[cH-]c1.c1cc[cH-]c1 [TCE, Bis[4-(2-trimethylammono)ethoxycarbonylphenolato]bis(n^5-cyclopentadienyl)titanium(IV)] | -4.00 log. (M) | 
